Not every detail of the peptide structures is certain; ends, links or a residue may be inferred.
Assays:
HTRA2 = target: T1, HTRA2 (Homo sapiens, UniProt O43464); test: Chromogenic enzyme activity assay, HTRA2; conditions: compared with Ahp1
T1 sequence (O43464 134-458): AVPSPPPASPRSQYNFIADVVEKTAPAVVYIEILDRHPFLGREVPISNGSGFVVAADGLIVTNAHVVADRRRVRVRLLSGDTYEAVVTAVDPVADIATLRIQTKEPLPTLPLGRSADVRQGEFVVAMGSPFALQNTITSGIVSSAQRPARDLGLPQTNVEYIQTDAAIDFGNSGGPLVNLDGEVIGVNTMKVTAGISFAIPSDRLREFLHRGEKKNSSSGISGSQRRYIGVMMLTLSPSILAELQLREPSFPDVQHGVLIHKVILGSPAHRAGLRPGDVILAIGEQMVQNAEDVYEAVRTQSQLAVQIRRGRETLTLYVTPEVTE

[1] = tested on: HTRA1-mediated hBMSC osteogenesis; test: hBMSC osteogenic differentiation, Alizarin Red S staining of matrix mineralization; type: cell-based, human; conditions: 10 µM Ahp10, with HTRA1 5 µg mL^-1; hBMSCs

CC(C)C[C@H]1C(=O)N(C)[C@@H](Cc2ccccc2)C(=O)N[C@@H](C(C)C)C(=O)O[C@H](C(C)C)[C@H](NC(=O)[C@H](C)NC(=O)[C@H](C)NC(=O)OCc2ccccc2)C(=O)N[C@@H](C(C)C)C(=O)N[C@H]2CC[C@@H](O)N1C2=O [Ahp10]
HTRA2 inhibition potency relative to Ahp1 (HTRA2): 15 fold | HTRA1-mediated hBMSC osteogenesis (matrix mineralization, Alizarin Red S staining) [1]: significantly inhibited

— patent EP3625243B1, “TAILORED CYCLODEPSIPEPTIDES AS POTENT NON-COVALENT SERINE PROTEASE INHIBITORS” (Universität Duisburg-Essen, priority 2017, dated 2018)
